Experimental data from patent US6770279B1, “TNFα antagonists and cyclosporin in therapy of rheumatoid arthritis” (The Kennedy Institute of Rheumatology, priority 1992, dated 2004).
At least one structure is not confirmed: it was looked up by name or label, or the drawing left a doubt.

System: collagen type II induced arthritis in the DBA/1 mouse
Test: Collagen type II induced arthritis: paw-swelling (hind paw thickness, calipers)
Format: in vivo
Settings: Example 2B; i.p. days 1, 4, 7; p55-sf2 2, 20, 100 μg; control IgG1; anti-TNF mAb 300 μg; methylprednisolone acetate 2 mg/kg

With `CC(=O)OCC(=O)[C@@]1(O)CC[C@H]2[C@@H]3C[C@H](C)C4=CC(=O)C=C[C@]4(C)[C@H]3[C@@H](O)C[C@@]21C` [Methylprednisolone acetate, methylprednisolone acetate] the reduction in paw-swelling was “comparable in magnitude to the reductions observed in the mice administered p55-sf2 at 100 μg or anti-TNF mAb at 300 μg”.
